For this test, the target named is T1, Miro1-sfGFP-FLAG-I3-01 synthetic cargo (human) (UniProt Q8IXI2).
T1 sequence: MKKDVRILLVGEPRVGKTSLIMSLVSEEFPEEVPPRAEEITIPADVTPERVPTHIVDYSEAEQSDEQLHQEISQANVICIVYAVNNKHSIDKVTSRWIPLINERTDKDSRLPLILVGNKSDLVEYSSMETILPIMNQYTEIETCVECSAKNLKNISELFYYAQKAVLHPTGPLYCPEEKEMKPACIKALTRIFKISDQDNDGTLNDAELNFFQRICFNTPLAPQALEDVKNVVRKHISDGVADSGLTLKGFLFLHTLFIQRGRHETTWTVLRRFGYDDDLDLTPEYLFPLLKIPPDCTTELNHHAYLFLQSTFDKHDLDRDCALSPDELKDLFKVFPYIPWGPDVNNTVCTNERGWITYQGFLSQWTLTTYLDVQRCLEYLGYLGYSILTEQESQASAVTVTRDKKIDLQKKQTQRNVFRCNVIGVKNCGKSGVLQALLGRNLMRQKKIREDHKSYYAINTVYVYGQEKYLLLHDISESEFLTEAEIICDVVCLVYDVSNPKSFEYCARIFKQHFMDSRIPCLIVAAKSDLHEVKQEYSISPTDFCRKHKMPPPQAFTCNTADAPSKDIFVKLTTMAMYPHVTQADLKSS
Description: affinity purification with mass spectrometry.

Results on one molecule are retold here after doi:10.1101/2024.09.13.612963 (bioRxiv, 2024).

These are yes or no findings as the source states them, for the method shown. Binding seen in cells or lysates may run through a third protein. These calls come from enrichment with a bait or labelling near it, and not all partners need be listed. Tags and fused reporters may be left off the sequences shown.

B1: TRAK2-mScarlet (wild type, truncated before the mitochondrial binding domain) (domain or fragment, UniProt O60296 1-700)
chain: MSQSQNAIFTSPTGEENLMNSNHRDSESITDVCSNEDLPEVELVSLLEEQLPQYRLKVDTLFLYENQDWTQSPHQRQHASDALSPVLAEETFRYMILGTDRVEQMTKTYNDIDMVTHLLAERDRDLELAARIGQALLKRNHVLSEQNESLEEQLGQAFDQVNQLQHELCKKDELLRIVSIASEESETDSSCSTPLRFNESFSLSQGLLQLEMLQEKLKELEEENMALRSKACHIKTETVTYEEKEQQLVSDCVKELRETNAQMSRMTEELSGKSDELIRYQEELSSLLSQIVDLQHKLKEHVIEKEELKLHLQASKDAQRQLTMELHELQDRNMECLGMLHESQEEIKELRSRSGPTAHLYFSQSYGAFTGESLAAEIEGTMRKKLSLDEESSLFKQKAQQKRVFDTVRIANDTRGRSISFPALLPIPGSNRSSVIMTAKPFESGLQQTEDKSLLNQGSSSEEVAGSSQKMGQPGPSGDSDLATALHRLSLRRQNYLSEKQFFAEEWQRKIQVLADQKEGVSGCVTPTESLASLCTTQSEITDLSSASCLRGFMPEKLQIVKPLEGSQTLYHWQQLAQPNLGTILDPRPGVITKGFTQLPGDAIYHISDLEEDEEEGITFQVQQPLEVEEKLSTSKPVTGIFLPPITSAGGPVTVATANPGKCLSCTNSTFTFTTCRILHPSDITQVTPSSGFPSLSCGS
As for B1, the binding entry was “binds”.
